Test results as given in article doi:10.1101/260919.

The chains behind the UniProt entries cited, without tags or fusion partners. Where a name states a change or a piece, a line headed by the entry shows the natural chain unless it says otherwise. A line that says so, or that is headed by a name, gives the form on record, which may keep a tag or linker.
endogenous DPP9 (dipeptidyl peptidase 9) (Q86TI2-2, form named): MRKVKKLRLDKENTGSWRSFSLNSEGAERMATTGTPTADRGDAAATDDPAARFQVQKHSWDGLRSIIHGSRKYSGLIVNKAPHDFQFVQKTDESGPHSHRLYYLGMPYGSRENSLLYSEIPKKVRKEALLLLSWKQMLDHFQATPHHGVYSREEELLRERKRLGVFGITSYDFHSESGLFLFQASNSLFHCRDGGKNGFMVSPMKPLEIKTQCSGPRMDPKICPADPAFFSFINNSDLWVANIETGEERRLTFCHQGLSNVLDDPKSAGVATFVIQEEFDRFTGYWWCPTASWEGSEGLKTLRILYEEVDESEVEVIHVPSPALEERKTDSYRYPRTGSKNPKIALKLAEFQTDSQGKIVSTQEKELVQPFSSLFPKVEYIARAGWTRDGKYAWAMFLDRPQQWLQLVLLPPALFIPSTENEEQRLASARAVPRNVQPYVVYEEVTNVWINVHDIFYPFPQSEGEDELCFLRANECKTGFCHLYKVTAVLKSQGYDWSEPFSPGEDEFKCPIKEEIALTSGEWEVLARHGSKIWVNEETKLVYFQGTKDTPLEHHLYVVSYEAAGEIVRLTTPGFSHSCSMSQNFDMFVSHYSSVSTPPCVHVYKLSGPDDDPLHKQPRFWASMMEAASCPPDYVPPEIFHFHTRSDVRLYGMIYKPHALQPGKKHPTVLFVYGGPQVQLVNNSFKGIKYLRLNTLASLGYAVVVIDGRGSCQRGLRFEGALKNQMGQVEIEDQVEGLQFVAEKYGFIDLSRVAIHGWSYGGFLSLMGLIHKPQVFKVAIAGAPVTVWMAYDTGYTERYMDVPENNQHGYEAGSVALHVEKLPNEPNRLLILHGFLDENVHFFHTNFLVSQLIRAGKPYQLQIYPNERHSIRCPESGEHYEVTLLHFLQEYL

Tests used:
Assay in all cases: affinity purification with mass spectrometry
[1] = biological target: T1, FLAG-tagged full-length NLRP1 (human) (UniProt Q9C000)
T1 sequence: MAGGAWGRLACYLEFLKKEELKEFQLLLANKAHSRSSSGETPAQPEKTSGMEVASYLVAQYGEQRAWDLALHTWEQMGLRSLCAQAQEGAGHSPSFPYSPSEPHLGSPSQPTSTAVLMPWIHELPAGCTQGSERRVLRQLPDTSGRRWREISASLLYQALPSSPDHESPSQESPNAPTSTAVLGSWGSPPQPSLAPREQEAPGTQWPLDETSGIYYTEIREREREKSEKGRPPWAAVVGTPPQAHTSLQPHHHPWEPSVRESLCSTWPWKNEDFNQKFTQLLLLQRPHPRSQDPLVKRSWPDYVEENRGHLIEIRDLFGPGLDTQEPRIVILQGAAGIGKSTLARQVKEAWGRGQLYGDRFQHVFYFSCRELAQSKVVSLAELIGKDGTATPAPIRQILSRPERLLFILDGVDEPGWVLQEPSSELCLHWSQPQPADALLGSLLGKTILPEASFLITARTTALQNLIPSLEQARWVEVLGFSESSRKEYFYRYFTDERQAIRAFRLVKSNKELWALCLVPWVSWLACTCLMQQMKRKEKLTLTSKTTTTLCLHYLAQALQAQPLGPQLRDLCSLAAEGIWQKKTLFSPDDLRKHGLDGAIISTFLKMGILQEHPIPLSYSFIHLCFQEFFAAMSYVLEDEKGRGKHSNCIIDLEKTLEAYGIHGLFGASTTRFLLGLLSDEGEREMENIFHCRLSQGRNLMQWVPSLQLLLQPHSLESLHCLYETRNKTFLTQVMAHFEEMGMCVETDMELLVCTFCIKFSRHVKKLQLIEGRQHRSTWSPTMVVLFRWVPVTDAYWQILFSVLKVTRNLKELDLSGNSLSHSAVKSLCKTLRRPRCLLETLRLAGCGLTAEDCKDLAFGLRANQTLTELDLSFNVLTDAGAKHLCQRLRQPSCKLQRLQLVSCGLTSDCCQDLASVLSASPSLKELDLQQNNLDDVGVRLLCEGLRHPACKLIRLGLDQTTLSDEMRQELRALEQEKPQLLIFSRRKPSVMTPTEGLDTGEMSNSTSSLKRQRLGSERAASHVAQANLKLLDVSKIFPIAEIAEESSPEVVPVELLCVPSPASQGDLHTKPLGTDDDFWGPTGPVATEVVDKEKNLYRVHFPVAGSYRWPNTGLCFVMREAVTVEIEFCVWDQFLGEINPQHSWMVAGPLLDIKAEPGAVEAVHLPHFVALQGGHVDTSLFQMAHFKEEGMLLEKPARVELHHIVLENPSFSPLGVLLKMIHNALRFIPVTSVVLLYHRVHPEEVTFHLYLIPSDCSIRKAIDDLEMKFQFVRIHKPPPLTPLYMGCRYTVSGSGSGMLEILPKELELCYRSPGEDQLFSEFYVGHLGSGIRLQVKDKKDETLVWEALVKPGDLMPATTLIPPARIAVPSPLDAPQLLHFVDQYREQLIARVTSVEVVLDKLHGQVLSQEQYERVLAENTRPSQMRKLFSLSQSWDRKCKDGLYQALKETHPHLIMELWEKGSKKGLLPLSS

[2] = biological target: T2, NLRP1 a.a. 1213-1373 (carboxy-terminal fragment of the FIIND domain) (human) (UniProt Q9C000)
T2 sequence: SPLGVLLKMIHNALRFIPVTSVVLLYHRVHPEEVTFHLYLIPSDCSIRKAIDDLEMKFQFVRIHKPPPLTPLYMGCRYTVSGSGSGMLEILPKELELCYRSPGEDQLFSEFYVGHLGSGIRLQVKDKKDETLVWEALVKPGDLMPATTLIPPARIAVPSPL

[3] = biological target: T3, NLRP1 a.a. 1213-1474 (constitutively active auto-proteolytic fragment) (human) (UniProt Q9C000)
T3 sequence: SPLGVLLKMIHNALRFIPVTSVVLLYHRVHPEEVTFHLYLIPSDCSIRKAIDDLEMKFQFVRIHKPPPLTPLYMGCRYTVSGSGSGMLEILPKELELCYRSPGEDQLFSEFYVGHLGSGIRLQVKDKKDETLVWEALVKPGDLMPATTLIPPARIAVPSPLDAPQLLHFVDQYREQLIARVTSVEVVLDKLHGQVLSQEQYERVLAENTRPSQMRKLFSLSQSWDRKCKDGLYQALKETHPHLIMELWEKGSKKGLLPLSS

## endogenous DPP9 (dipeptidyl peptidase 9) (from UniProt Q86TI2-2 1-892) (enzyme)
[1]
  binding: binds
[2]
  binding: no binding
[3]
  binding: no binding

Results are given in words; binding and its absence hold for the method and conditions named. In cells and extracts the contact can be indirect. A yes stands for co-enrichment or nearness to the bait. Other partners may have been found. For part of these data: No binding means not detected with the bait. For part of these data: Sequences can lack the tags named with a protein.
